Data from PMC11251039, “Harnessing cholesterol uptake of malaria parasites for therapeutic applications” (EMBO Molecular Medicine, 2024).

How the values were obtained:
[1] = system: infected red blood cells (iRBCs); test: Uptake of fluorescent cholesterol analogues (deconvolution fluorescence microscopy, flow cytometry); type: cell-based, P. falciparum; details: for Uptake in iRBCs compared to uRBCs (NBD fluorescence, flow cytometry) / NBD mean fluorescence intensity (foldchange, normalised), Infected: 2 µM, 24 h; for NBD mean fluorescence intensity (foldchange, normalised), Infected: flow cytometry, replicate values, source data Fig. 1H; for Subcellular fluorescence localisation: 24 h incubation from ring stage, deconvolution fluorescence microscopy
[2] = system: uninfected red blood cells (uRBCs); test: Uptake of fluorescent cholesterol analogues (flow cytometry), uninfected cells; type: cell-based, human; details: 2 µM, 24 h, replicate values, source data Fig. 1H

SMILES	Uptake in iRBCs compared to uRBCs (NBD fluorescence, flow cytometry) [1]	NBD mean fluorescence intensity (foldchange, normalised), Infected [1]	Subcellular fluorescence localisation [1]	NBD mean fluorescence intensity (foldchange, normalised), Uninfected [2]
CC(C)CCC[C@@H](C)[C@H]1CC[C@H]2[C@@H]3CC=C4C[C@@H](OC(=O)CCCCCN(C)c5ccc([N+](=O)[O-])c6nonc56)CC[C@]4(C)[C@H]3CC[C@]12C [3-Hexanoyl-NBD-cholesterol]	not significantly different	0.0904 and 0.434 and 0.1229 and 0.3079 and 0.297 and 0.3178 and 0.1407 and 0.156 and 0.1654 and 0.213 and 0.2006 and 0.2018	faintly visible in the RBC membrane and in the parasite	0.06749 and 0.1421 and 0.1333 and 0.1319 and 0.3093 and 0.06015 and 0.2316 and 0.2295 and 0.2415 and 0.0755 and 0.09012 and 0.093
CC1=CC(C)=[N+]2C1=C(CCCCCCCCCCC(=O)O[C@H]1CC[C@@]3(C)C(=CC[C@H]4[C@@H]5CC[C@H]([C@H](C)CCCC(C)C)[C@@]5(C)CC[C@@H]43)C1)c1c(C)cc(C)n1[B-]2(F)F [3-undecanoate-BODIPY-cholesterol]	–	–	faint and only visible in the parasite	–
C[C@H](CN(C)c1ccc([N+](=O)[O-])c2nonc12)[C@H]1CC[C@H]2[C@@H]3CC=C4C[C@@H](O)CC[C@]4(C)[C@H]3CC[C@]12C [22-NBD-cholesterol]	approximately 8 fold	6.176 and 5.65 and 4.181 and 8.962 and 8.373 and 8.463 and 7.217 and 8.143 and 8.359 and 8.349 and 8.174 and 7.939	bright around the area of the parasite in iRBCs and faintly visible in the RBC membrane of both uRBCs and iRBCs	1.118 and 1.012 and 1.021 and 0.967 and 1.053 and 0.8292 and 1.027 and 0.983 and 0.9903 and 0.9497 and 1.016 and 1.035
CC1=CC(C)=[N+]2C1=C(CC[C@@H](C)[C@H]1CC[C@H]3[C@@H]4CC=C5C[C@@H](O)CC[C@]5(C)[C@H]4CC[C@]13C)c1c(C)cc(C)n1[B-]2(F)F [24-BODIPY-cholesterol]	–	–	visible in the RBC membrane of both uninfected RBCs (uRBCs) and iRBCs, and in the intracellular parasites inside erythrocytes	–
CC(C)[C@@H](C)/C=C/[C@@H](C)[C@H]1CC[C@H]2C3=CC=C4C[C@@H](O)CC[C@]4(C)C3=CC[C@]12C [dehydroergosterol]	–	–	fluorescence concentrated within the parasite	–
COc1ccc(CNc2ccc([N+](=O)[O-])c3nonc23)cc1 [p-methoxybenzylamine-NBD]	–	–	only faint fluorescence in uRBCs and iRBCs	–

Several values for one entry are separate records, joined by “and”; a condition that tells them apart may be missing. Identical values can stand only once.
